No constants are given. Whether binding was seen depends on the method and setting. Binding seen in cells or lysates may run through a third protein. A result given as binding can be weak or reduced; the word gives no strength.
Target: HA-tagged PDGFRβ (UniProt P09619)
Assay: co-IP; HEK293T transfected with HA-PDGFRβ and mJAK2 wildtype or kinase dead, 24 h, then MG132, pepstatin and leupeptin for 4 h; lysed in IP buffer (50 mM Tris-HCl pH 7.4, 300 mM NaCl, 5 mM EDTA, 1% Nonidet P40); immunoprecipitated with HA-specific antibody overnight at 4 °C, Protein A/G Dynabeads; western blot

By UniProt entry, the sequences of proteins in these tests, tags left out. Where a name states a change or a piece, a line headed by the entry shows the natural chain unless it says otherwise.
UniProt Q62120: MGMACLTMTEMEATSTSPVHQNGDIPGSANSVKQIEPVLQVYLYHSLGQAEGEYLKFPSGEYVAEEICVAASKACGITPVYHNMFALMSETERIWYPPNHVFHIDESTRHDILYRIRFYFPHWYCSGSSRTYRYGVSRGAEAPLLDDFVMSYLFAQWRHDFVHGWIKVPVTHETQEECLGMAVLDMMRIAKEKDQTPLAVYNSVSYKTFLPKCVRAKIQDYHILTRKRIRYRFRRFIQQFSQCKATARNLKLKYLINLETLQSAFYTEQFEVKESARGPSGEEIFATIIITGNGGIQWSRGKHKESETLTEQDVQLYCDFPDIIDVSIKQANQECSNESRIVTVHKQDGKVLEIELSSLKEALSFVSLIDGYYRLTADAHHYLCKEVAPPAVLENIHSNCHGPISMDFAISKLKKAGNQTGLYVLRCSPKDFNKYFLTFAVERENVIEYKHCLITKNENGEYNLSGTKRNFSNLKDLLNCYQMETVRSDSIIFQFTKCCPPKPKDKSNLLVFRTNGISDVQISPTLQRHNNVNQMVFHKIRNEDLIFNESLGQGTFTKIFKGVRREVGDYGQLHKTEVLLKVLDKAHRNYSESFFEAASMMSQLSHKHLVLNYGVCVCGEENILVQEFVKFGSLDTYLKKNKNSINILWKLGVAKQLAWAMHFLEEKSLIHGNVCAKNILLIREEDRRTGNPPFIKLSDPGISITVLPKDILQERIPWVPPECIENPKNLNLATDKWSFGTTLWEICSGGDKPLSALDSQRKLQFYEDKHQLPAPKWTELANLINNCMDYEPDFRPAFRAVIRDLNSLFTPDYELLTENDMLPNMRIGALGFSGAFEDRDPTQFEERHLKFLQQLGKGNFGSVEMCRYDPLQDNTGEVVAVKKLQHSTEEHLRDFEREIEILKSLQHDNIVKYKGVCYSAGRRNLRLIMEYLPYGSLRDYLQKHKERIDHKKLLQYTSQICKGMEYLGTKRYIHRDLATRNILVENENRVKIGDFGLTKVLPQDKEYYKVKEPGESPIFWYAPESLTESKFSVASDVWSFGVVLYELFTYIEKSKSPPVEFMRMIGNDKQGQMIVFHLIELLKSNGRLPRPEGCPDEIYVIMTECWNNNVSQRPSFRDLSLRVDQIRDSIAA

JAK2 kinase dead (from UniProt Q62120) (enzyme)
binding: binds

From article PMC6379987
